Results: PMC7459424
Results are given in words; binding and its absence hold for the method and conditions named. Binding seen in cells or lysates may run through a third protein. Some results given as binding are weak or reduced against the parent protein; the word gives no strength. Tags and fused reporters may be left off the sequences shown. Values belong to the molecule of their own block, whether it stands above or below them.

By UniProt entry, the sequences of proteins in these tests, tags left out.
UniProt Q9QYP6: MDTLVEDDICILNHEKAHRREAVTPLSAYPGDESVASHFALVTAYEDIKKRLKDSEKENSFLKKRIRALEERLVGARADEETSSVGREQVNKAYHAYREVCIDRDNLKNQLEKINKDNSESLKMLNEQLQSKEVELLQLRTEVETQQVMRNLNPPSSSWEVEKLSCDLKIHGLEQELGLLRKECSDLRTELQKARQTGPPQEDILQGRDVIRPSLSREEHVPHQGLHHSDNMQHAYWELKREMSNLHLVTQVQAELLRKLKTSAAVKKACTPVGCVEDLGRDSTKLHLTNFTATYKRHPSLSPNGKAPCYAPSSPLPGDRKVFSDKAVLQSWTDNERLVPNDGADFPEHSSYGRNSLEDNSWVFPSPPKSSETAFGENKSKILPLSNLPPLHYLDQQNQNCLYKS

How the values were obtained:
Flag-tagged IKKε = biological target: T1, Flag-tagged IKKε (UniProt Q9R0T8); experiment: co-IP; lysates of ST2 TBK1/IKKε DKO cells reconstituted with Flag-tagged TBK1, IKKε or GFP; anti-Flag immunoprecipitation, immunoblot
T1 sequence: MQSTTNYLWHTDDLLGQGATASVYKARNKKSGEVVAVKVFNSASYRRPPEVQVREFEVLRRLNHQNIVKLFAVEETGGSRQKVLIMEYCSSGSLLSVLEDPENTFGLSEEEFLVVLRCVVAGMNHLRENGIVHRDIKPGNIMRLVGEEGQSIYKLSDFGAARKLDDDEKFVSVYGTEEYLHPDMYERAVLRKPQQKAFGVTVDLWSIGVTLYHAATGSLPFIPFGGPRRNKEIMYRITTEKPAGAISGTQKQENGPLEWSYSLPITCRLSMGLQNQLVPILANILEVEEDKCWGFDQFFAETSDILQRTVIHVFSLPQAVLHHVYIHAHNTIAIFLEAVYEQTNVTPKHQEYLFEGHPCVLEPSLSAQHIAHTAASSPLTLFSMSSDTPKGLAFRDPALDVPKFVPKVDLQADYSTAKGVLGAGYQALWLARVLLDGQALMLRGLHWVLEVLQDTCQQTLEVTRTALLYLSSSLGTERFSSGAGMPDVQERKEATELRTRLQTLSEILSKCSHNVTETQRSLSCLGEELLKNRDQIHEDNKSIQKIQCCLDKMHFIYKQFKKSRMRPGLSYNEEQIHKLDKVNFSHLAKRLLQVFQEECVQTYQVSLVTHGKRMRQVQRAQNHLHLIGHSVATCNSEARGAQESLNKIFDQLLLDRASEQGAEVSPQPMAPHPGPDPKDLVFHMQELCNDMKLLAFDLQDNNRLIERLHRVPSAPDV

Flag-tagged TBK1 = biological target: T2, Flag-tagged TBK1 (UniProt Q9WUN2); experiment: as above
T2 sequence: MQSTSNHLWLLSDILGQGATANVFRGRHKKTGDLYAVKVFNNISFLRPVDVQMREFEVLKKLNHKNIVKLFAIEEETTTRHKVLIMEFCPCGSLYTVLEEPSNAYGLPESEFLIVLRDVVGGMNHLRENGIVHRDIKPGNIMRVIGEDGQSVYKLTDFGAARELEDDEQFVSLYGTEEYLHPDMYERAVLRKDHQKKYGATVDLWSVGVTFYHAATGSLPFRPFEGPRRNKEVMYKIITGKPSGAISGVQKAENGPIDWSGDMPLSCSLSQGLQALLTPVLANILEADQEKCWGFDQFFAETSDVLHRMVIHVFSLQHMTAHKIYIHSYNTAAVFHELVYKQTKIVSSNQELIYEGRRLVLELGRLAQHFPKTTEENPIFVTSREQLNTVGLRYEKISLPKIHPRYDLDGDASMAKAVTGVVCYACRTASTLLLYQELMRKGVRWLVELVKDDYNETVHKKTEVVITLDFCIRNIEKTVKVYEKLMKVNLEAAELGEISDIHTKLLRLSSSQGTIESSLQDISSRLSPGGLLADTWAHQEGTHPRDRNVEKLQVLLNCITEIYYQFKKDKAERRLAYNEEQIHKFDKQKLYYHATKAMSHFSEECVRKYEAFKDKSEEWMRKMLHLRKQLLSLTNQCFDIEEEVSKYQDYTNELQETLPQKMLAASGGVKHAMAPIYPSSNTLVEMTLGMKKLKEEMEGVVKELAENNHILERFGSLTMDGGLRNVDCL

binding (Flag-tagged IKKε): binds | binding (Flag-tagged TBK1): binds
Molecule: NAP1 (from UniProt Q9QYP6 1-405)

binding (Flag-tagged IKKε): binds | binding (Flag-tagged TBK1): binds
B1: TANK (protein, UniProt P70347 1-448)
chain: MSLKRHSLRRNACHLETRAGIPTILYSDATGQRGMDKNIGEQLNRAYEAFRQACMDRDSAVRELQQKQTENYEQRIREQQEQLSFQQNLIDRLKSQLLLVDSSRDNSYGYVPLLEDSDRRKNNLTLDEPHDKVKLGTLRDKQSKVRRQEVSSGKESAKGLNIPLHHERDNIEKTFWDLKEEFHRICLLAKAQKDHLSKLNIPDIATDTQCSVPIQCTDKTEKQEALFKPQAKDDINRGMSCVTAVTPRGLGRDEEDTSFESLSKFNVKFPPMDNDSIFLHSTPEAPSILAPATPETVCQDRFNMEVRDNPGNFVKTEETLFEIQGIDPITSAIQNLKTTDKTNPSNLRATCLPAGDHNVFYVNTFPLQDPPDAPFPSLDSPGKAVRGPQQPFWKPFLNQDTDLVVPSDSDSELLKPLVCEFCQELFPPSITSRGDFLRHLNTHFNGET
